The whole screen tested about 330,000 compounds, of which about 7,700 (2.3%) were called active. The inconclusive results got no clear call from the source; some entries with a clear call stand among them for comparison. Calls come from the whole dose curve; as a rule, active = well fitted inhibition curve with a large enough effect; inconclusive = small, poorly fitted or top-dose-only effect, or effect the other way; inactive = flat fitted curve, though single readings scatter. Where the call is inconclusive, the potency comes from a doubtful curve fit.
Assay: qHTS screen for small molecules that inhibit ELG1-dependent DNA repair in human embryonic kidney (HEK293T) cells expressing luciferase-tagged ELG1; note: nearly all actives have a fitted effect of over 55% in size
Settings: HEK293T ELG1-luciferase reporter, luminescence, 16 h, DNA damage induced by 5-fluorouridine; activity change, negative = inhibition: at 46.1 µM (top of the series)
Summary of the method: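 Overnight (16 hr) co-exposure of 2,000 cells/well to 5-fluorouridine and compound at 37 °C preceded detection. Luciferase was quantified via ONE-Glo luminescence; loss of signal denotes inhibition.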
% is set by controls: 0 for no effect and ±100 for the full control effect; potency is the fitted concentration of half-maximal effect.

Question: Which Potency does the source give for `CCOCCn1c(CN(C)Cc2ccccc2)nc2c1c(=O)n(C)c(=O)n2C` here?
Answer: inconclusive: 23.1 µM [inhibitor, single point]

Question: For `CCn1c(Cc2ccc(OC)cc2)nc2ccccc21`, which “activity change, negative = inhibition” value is on record?
Answer: inactive: -15.3%

Question: Which Potency does the source give for `NC(=O)Cc1nc2scc(-c3ccccc3)c2c(=O)[nH]1` here?
Answer: inconclusive: 23.1 µM [activator, partial curve, poor fit]

Question: Which Potency does the source give for `CCC(C)(C)NC(=O)C(c1ccc(F)cc1)N(Cc1ccc(OC)cc1)C(=O)c1cnccn1` (stereo not given) here?
Answer: inconclusive: 16.4 µM [activator, partial curve]

Question: With `Cc1ccc(S(=O)(=O)NC(=O)NCCc2ccccc2)cc1` as the compound, how does the activity change, negative = inhibition read?
Answer: inconclusive: 41.6% [activator]

Question: Which Potency does the source give for `CC(Sc1ccccc1)C(=O)N1CCN(S(=O)(=O)c2ccccc2C(F)(F)F)CC1` (stereo not given) here?
Answer: inconclusive: 8.2 µM [inhibitor, partial curve, poor fit]

Question: With `CN(C)C(CNC(=O)c1cc(-c2ccco2)nc2ccccc12)c1ccccc1` (stereo not given) as the compound, how does the Potency read?
Answer: inconclusive: 16.4 µM [activator, single point]

Question: With `CCCc1cc(=O)[nH]c(SCC(=O)c2c(N)n(CC(C)C)c(=O)n(C)c2=O)n1` as the compound, how does the Potency read?
Answer: inconclusive: 18.3 µM [inhibitor, partial curve]

Question: For `C=CCn1c(COc2ccc(F)cc2)nnc1SCC(=O)NC1CCS(=O)(=O)C1` (stereo not given), which “activity change, negative = inhibition” value is on record?
Answer: inactive: 13.1%

Question: With `CCCC[C@H]1COCCS(=O)(=O)N1Cc1ccc(Br)cc1` as the compound, how does the “activity change, negative = inhibition” value read?
Answer: inactive: -58.1%

Question: Which Potency does the source give for `Cc1cc(C(=O)COC(=O)c2ccc3c(c2)NC(=O)CS3)c(C)n1CCc1ccc(Cl)cc1` here?
Answer: inconclusive: 9.2 µM [activator, partial curve]

Question: For `CC1CCc2c(sc3ncnc(SCC(=O)Nc4ccc(C(=O)O)cc4)c23)C1` (stereo not given), which “activity change, negative = inhibition” value is on record?
Answer: inactive: 0%

Question: For `Cc1ccc2cc(C#N)c(SCC(=O)Nc3ccc4sc(C)nc4c3)nc2c1`, which “activity change, negative = inhibition” value is on record?
Answer: inactive: -9.2%

Question: With `Cc1ccccc1NC(=S)Nc1cccc2cnccc12` as the compound, how does the Potency read?
Answer: inconclusive: 9.2 µM [inhibitor, partial curve]

Question: Which Potency does the source give for `O=c1[nH]c2ccccc2c2nc3ccccn3c12` here?
Answer: inconclusive: 20.6 µM [activator, partial curve]

Question: Which “activity change, negative = inhibition” value does the source give for `C/C(=N\NC(=O)c1cccc(F)c1)c1ccc(Br)s1` here?
Answer: inactive: -19.8%

Question: For `Cc1c(C(=O)N(Cc2cccc(Br)c2)C2CCS(=O)(=O)C2)oc2ccccc12` (stereo not given), which Potency is on record?
Answer: inconclusive: 23.1 µM [inhibitor, single point]

Question: With `CC1=CC(C)(C)[N+](C)(C)c2ccc(C)cc21` as the compound, how does the “activity change, negative = inhibition” value read?
Answer: inactive: -7.81%

Question: For `O=C(/C=C/c1ccc2ccccc2n1)c1cc(Cl)ccc1O`, which Potency is on record?
Answer: inconclusive: 14.6 µM [activator, partial curve]

Question: For `Cc1cccnc1NC(=O)c1nn(C)c2c1CS(=O)(=O)c1ccccc1-2`, which Potency is on record?
Answer: inconclusive: 16.4 µM [activator, partial curve, poor fit]

Question: For `CCOC(=O)c1ccc(C(=O)OCC)nc1`, which Potency is on record?
Answer: inconclusive: 0.651 µM [activator, full curve, poor fit]

Question: For `CCOc1ccc(NC(=O)COC(=O)c2ccc3c(c2)OCO3)cc1`, which Potency is on record?
Answer: inconclusive: 29.1 µM [activator, partial curve, poor fit]

Question: Which Potency does the source give for `COC(=O)c1ccc(-c2csc(NC(=O)c3c(C)noc3C)n2)cc1` here?
Answer: inconclusive: 29.1 µM [inhibitor, single point]

Question: With `S=C(NCCCN1CCOCC1)Nc1ccc(Cl)c(Cl)c1` as the compound, how does the “activity change, negative = inhibition” value read?
Answer: inactive: -8.1%

Question: For `NC(=S)N/N=C/c1ccc(-c2ccccc2)o1`, which “activity change, negative = inhibition” value is on record?
Answer: inactive: -2.34%

Question: For `O=C(NC(=S)Nc1ccc([N+](=O)[O-])cc1O)C1CCCCC1`, which Potency is on record?
Answer: inconclusive: 23.1 µM [inhibitor, single point]

Question: Which Potency does the source give for `C=C(C)/C=N/NC(=S)Nc1ccc(S(=O)(=O)N2CCOCC2)cc1` here?
Answer: inconclusive: 18.3 µM [inhibitor, single point]

Question: For `O=C(CN1CCCC1)Nc1ccc2c(c1)CCC2`, which Potency is on record?
Answer: inconclusive: 29.1 µM [activator, single point]

Question: With `Cc1cc(Cl)ccc1OCC(=O)NNC(=O)c1cnccn1` as the compound, how does the “activity change, negative = inhibition” value read?
Answer: inactive: -8.12%

Question: Which Potency does the source give for `O=C(Nc1ccc(Cc2ccncc2)cc1)c1ccc(Br)o1` here?
Answer: inconclusive: 20.6 µM [activator, single point]

Question: With `Cc1sc2ncnc(NS(=O)(=O)c3ccc(Cl)cc3)c2c1C` as the compound, how does the Potency read?
Answer: inconclusive: 29.1 µM [inhibitor, single point]

Question: Which “activity change, negative = inhibition” value does the source give for `N#CCSc1nc2sccc2c(=O)n1-c1ccccc1` here?
Answer: inactive: 7.88%

Question: Which “activity change, negative = inhibition” value does the source give for `NS(=O)(=O)c1ccc(NC(=O)CN2CCN(S(=O)(=O)c3cccs3)CC2)cc1` here?
Answer: inactive: -4.1%

Question: For `CS(=O)(=O)c1ccc(C(=O)NCc2ccccc2F)cc1`, which Potency is on record?
Answer: inconclusive: 4.61 µM [inhibitor, partial curve, poor fit]

Question: With `COCCNC(=O)c1onc(CSc2nc3ccccc3[nH]2)c1C(=O)NCCOC` as the compound, how does the “activity change, negative = inhibition” value read?
Answer: inactive: -6.76%

Question: Which Potency does the source give for `Cc1nc2cc(NC(=O)NCc3ccco3)ccc2n1C` here?
Answer: inconclusive: 29.1 µM [activator, single point]

Question: For `COc1ccc(N2CCN(S(=O)(=O)CCNC(=O)C3CC(=O)N(c4ccccc4)C3)CC2)cc1` (stereo not given), which “activity change, negative = inhibition” value is on record?
Answer: inactive: 9.37%

Question: With `CC(=O)c1c(C)oc2c1C(=O)c1ccccc1C2=O` as the compound, how does the Potency read?
Answer: active: 11.6 µM

Question: With `C#CCOCCOCCOCCNc1nc(N2CCN(C(=O)[C@H](CCC(=O)O)n3cc(C(N)CC(C)C)nn3)CC2)nc(N2CCN(C(=O)[C@H](CCC(=O)O)n3cc(C(N)[C@H](C)CC)nn3)CC2)n1` (stereo not given in full) as the compound, how does the “activity change, negative = inhibition” value read?
Answer: inactive: 9.46%

Question: With `CC1=CC2=NC(=O)/C(=C\c3cccn3CCOc3cc(C)ccc3C)C(=N)N2O1` as the compound, how does the Potency read?
Answer: inconclusive: 32.6 µM [inhibitor, single point]

Question: For `Cn1c[n+](C)cc1-c1ccc(/C(N)=N/O)cc1`, which “activity change, negative = inhibition” value is on record?
Answer: inactive: 8.49%

Question: Which “activity change, negative = inhibition” value does the source give for `NNC(=O)CNC(c1ccccc1)c1cc(Br)ccc1N` (stereo not given) here?
Answer: inactive: 9.89%

Question: For `O=C(COC(=O)c1ccc2c(c1)C(=O)N(CCc1ccccc1)C2=O)Nc1ccc(OC(F)F)cc1`, which Potency is on record?
Answer: inconclusive: 18.4 µM [activator, partial curve]

Question: For `COc1cc(-c2cc3nc4ccccc4n3c(N)c2C#N)cc(OC)c1OC`, which Potency is on record?
Answer: inconclusive: 6.51 µM [inhibitor, partial curve, poor fit]

Question: With `O=C(COC(=O)c1ccc(S(=O)(=O)N2CCOCC2)cc1)Nc1ccccc1OC(F)F` as the compound, how does the Potency read?
Answer: inconclusive: 5.17 µM [activator, single point]

Question: With `Cc1ccc(/C=C/C(=O)Nc2ccc(S(N)(=O)=O)cc2)o1` as the compound, how does the “activity change, negative = inhibition” value read?
Answer: inactive: 3.89%

Question: With `COc1ccc(Cc2[nH]n3c(=O)cc(C(C)C)nc3c2-c2ccccc2)cc1` as the compound, how does the Potency read?
Answer: active: 8.2 µM

Question: With `O=C(Nc1cnccn1)Nc1ccccc1Cl` as the compound, how does the Potency read?
Answer: inconclusive: 14.6 µM [activator, single point]

Question: Which “activity change, negative = inhibition” value does the source give for `COC(=O)Cn1cc(C(=O)c2ccco2)c2ccccc21` here?
Answer: inactive: 16.4%

Question: For `COc1ccc(N/C(C)=C/C(=O)c2ccccc2)cc1`, which Potency is on record?
Answer: inconclusive: 11.6 µM [activator, partial curve]

Question: For `CCc1nnc(NC(=O)CSc2nnnn2C)s1`, which Potency is on record?
Answer: inconclusive: 25.9 µM [activator, single point]

Question: With `c1ccc2c(c1)ccc1ccccc12` as the compound, how does the “activity change, negative = inhibition” value read?
Answer: inactive: 4.25%

Question: With `Cc1cc(-c2nnc(-c3cccc(Cl)c3)o2)no1` as the compound, how does the Potency read?
Answer: inconclusive: 7.3 µM [activator, partial curve]

Question: Which “activity change, negative = inhibition” value does the source give for `CCCCNC(=O)CSc1nc(COc2ccccc2)nc2ccccc12` here?
Answer: inactive: -19%

Question: With `Cc1cc(Cc2ccc([N+](=O)[O-])cc2)c(C)cn1` as the compound, how does the Potency read?
Answer: inconclusive: 1.58 µM [inhibitor, partial curve, poor fit]

Question: With `CN(C)c1ccc(C(=O)OCC(=O)N2CCCCCC2)cc1` as the compound, how does the Potency read?
Answer: inconclusive: 18.3 µM [activator, partial curve]

Question: With `CC(=O)c1ccc(N=C2C(=O)Nc3ccccc32)cc1` as the compound, how does the “activity change, negative = inhibition” value read?
Answer: inactive: 9.01%

Question: Which “activity change, negative = inhibition” value does the source give for `Cc1ccc(CCN2CC(C(=O)NC3CCCC3)CC2=O)cc1` (stereo not given) here?
Answer: inactive: 8.83%

Question: For `O=[N+]([O-])c1cccc(C(=Nc2ccccc2)NO)c1`, which “activity change, negative = inhibition” value is on record?
Answer: inactive: -3.54%

Question: With `COc1c2ccoc2nc2c(OC)c(OC[C@@H](O)C(C)(C)O)ccc12` as the compound, how does the Potency read?
Answer: inconclusive: 12.6 µM [activator, partial curve, poor fit]

Question: With `CC(=NC1CC1)C1=C(O)c2ccccc2C1=O` as the compound, how does the Potency read?
Answer: inconclusive: 13 µM [activator, partial curve]

Question: With `CCOc1ccc(NC(=O)CN(C)C(=O)c2sccc2-c2ccccc2)cc1OCC` as the compound, how does the Potency read?
Answer: inconclusive: 23.1 µM [inhibitor, single point]

Question: Which “activity change, negative = inhibition” value does the source give for `O=C(COc1ccc(Br)cc1)N/N=C1\SCC(=O)N1c1ccc(F)cc1` here?
Answer: inactive: 9.11%

Question: Which Potency does the source give for `Cc1nc(-c2ccc(S(=O)(=O)N3CCCCCC3)cc2)cs1` here?
Answer: inconclusive: 32.6 µM [inhibitor, single point]

Question: With `O=C(Nc1ncc([N+](=O)[O-])s1)C1CC(=O)N(c2ccc(F)cc2)C1` (stereo not given) as the compound, how does the “activity change, negative = inhibition” value read?
Answer: inactive: 13.8%

Question: For `Cc1csc2ncnc(NNC(=O)c3ccc(Cl)cc3)c12`, which “activity change, negative = inhibition” value is on record?
Answer: inactive: -8.7%

Question: For `CC(c1ccccc1)N1CNc2c(c(=O)n(C)c(=O)n2C)C1` (stereo not given), which “activity change, negative = inhibition” value is on record?
Answer: inactive: 4.09%

Question: With `CN(C)S(=O)(=O)c1ccc(NC(=O)N2CCN(c3ccccc3Cl)CC2)cc1` as the compound, how does the Potency read?
Answer: inconclusive: 18.4 µM [inhibitor, single point]

Question: With `Cc1c(C(=O)N2CCCC2)c(S(=O)(=O)Nc2cccc(Br)c2)c(C)n1C` as the compound, how does the Potency read?
Answer: inconclusive: 29.1 µM [activator, single point]

Question: For `Cc1cc(C)c(Cn2c3ccccc3c3cnn(CC(=O)NCc4ccccn4)c(=O)c32)c(C)c1`, which Potency is on record?
Answer: inconclusive: 29.1 µM [inhibitor, single point]

Question: For `COc1cc(/C=C/C(=O)OCC(=O)c2c[nH]c3ccccc23)ccc1OC(F)F`, which Potency is on record?
Answer: inconclusive: 29.1 µM [inhibitor, single point]

Question: With `O=C(NCc1ccccc1)C1CCC1` as the compound, how does the “activity change, negative = inhibition” value read?
Answer: inactive: 6.91%

Question: Which “activity change, negative = inhibition” value does the source give for `CCCCCC(=O)NC(=S)Nc1ccc(Br)cc1C` here?
Answer: inactive: 25.9%

Question: For `Cc1onc(-c2c(F)cccc2Cl)c1C(=O)NC(=S)NC1CCS(=O)(=O)C1` (stereo not given), which “activity change, negative = inhibition” value is on record?
Answer: inactive: -8.56%

Question: For `CCOC(=O)Cc1csc(NC(=O)c2ccc(S(=O)(=O)N3CCCC3)cc2)n1`, which Potency is on record?
Answer: inconclusive: 25.9 µM [inhibitor, single point]

Source: PubChem BioAssay AID504467 (National Center for Advancing Translational Sciences (NCATS), 2011)
